Reference: patent US20220332759A1, “TARGETED PULMONARY DELIVERY COMPOSITIONS AND METHODS USING SAME” (Rutgers, The State University of New Jersey, priority 2019, published 2022)
No constants are given. Whether binding was seen depends on the method and setting. Some results given as binding are weak or reduced against the parent protein; the word gives no strength.

By UniProt entry, the sequences of proteins in these tests, tags left out. Where a name states a change or a piece, a line headed by the entry shows the natural chain unless it says otherwise.
UniProt Q62470: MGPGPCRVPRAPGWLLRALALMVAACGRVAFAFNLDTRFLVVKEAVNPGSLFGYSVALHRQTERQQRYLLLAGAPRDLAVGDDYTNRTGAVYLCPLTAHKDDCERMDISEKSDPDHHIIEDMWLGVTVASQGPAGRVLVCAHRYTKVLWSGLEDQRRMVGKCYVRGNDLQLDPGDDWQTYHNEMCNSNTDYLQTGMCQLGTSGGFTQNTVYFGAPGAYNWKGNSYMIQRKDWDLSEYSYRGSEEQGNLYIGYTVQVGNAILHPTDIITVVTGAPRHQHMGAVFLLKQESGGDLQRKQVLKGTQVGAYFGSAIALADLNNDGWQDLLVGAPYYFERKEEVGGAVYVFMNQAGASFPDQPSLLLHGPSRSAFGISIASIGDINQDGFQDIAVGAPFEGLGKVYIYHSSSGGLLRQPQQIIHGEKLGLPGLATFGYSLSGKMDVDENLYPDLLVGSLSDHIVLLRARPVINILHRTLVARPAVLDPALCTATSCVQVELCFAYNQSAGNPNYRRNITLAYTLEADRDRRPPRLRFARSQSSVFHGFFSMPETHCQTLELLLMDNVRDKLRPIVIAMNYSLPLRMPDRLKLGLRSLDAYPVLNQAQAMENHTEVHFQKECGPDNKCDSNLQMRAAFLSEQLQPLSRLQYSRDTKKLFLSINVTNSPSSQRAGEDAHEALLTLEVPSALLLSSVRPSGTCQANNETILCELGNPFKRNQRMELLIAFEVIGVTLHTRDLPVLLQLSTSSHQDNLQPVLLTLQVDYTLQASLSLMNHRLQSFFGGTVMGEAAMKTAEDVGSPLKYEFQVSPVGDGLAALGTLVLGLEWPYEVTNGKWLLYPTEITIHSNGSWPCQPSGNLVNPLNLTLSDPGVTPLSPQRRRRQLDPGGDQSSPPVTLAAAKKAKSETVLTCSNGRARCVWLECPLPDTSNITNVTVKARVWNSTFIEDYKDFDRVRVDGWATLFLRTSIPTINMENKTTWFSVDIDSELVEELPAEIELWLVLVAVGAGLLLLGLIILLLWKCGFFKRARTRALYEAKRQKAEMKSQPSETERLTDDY
UniProt P09055: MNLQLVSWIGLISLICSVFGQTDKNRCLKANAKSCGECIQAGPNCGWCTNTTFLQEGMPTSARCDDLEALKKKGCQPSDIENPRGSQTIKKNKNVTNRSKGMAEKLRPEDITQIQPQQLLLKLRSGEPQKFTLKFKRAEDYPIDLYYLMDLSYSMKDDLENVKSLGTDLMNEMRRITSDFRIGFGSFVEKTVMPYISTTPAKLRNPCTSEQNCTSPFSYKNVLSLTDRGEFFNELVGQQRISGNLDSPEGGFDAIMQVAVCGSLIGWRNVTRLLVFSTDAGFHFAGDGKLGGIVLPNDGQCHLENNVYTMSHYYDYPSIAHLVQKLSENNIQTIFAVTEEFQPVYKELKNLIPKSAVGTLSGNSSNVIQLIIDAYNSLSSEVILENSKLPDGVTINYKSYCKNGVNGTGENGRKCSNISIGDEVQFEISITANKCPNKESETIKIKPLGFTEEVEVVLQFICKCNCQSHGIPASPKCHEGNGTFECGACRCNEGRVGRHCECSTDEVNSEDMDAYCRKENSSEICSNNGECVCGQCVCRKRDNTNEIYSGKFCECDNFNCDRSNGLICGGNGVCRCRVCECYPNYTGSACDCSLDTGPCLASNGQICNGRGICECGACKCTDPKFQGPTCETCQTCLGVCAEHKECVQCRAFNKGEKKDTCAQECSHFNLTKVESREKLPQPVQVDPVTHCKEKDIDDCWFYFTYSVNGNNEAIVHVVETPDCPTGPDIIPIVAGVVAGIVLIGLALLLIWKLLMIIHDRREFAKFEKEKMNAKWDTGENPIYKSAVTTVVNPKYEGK
UniProt P26006: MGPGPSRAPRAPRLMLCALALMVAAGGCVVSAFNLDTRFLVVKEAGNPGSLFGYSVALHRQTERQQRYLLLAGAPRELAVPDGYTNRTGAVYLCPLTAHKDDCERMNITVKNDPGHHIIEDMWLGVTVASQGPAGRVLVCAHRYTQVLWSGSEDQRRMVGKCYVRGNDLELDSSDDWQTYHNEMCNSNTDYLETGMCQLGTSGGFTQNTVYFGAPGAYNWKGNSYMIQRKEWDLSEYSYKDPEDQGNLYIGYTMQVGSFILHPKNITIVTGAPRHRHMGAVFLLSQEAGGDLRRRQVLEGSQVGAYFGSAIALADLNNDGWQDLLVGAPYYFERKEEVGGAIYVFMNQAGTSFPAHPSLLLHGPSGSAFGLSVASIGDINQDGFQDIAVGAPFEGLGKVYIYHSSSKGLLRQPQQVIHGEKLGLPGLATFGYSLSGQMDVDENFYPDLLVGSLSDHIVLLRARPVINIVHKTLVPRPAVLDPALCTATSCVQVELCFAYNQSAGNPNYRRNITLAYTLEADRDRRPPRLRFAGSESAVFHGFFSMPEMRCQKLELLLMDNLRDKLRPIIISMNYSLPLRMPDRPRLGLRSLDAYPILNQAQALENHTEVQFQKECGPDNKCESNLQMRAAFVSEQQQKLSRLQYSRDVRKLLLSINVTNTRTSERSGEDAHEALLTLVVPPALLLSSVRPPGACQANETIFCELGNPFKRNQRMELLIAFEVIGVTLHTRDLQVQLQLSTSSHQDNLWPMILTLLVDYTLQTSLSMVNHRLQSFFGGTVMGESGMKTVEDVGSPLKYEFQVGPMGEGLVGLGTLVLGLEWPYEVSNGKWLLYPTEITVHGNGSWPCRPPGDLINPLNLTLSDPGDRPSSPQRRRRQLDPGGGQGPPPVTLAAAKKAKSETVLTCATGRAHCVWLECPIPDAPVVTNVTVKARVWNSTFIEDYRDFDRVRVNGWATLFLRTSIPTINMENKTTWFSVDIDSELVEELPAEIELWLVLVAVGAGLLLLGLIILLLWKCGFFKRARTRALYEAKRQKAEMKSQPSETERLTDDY
UniProt P05556: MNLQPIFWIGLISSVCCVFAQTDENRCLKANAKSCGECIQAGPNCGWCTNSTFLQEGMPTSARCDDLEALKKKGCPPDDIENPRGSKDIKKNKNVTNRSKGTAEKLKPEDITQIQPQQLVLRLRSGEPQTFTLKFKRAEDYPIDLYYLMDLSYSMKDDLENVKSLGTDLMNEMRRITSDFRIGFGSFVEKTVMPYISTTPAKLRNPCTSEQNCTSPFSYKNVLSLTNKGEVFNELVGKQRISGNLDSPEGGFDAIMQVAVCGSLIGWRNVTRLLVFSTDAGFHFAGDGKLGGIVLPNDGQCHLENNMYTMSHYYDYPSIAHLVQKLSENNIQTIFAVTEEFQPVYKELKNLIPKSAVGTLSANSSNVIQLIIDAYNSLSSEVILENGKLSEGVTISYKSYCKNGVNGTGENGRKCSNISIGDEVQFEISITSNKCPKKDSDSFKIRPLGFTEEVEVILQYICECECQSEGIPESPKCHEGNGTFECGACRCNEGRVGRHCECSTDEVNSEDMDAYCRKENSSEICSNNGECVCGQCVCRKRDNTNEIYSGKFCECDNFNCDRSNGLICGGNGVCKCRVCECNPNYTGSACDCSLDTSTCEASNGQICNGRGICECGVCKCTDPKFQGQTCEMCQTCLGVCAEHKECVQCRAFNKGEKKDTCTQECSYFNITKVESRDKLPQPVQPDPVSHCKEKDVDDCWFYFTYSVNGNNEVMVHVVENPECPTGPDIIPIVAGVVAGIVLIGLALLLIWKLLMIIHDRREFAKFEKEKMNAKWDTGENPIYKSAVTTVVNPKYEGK

Key:
[1] = biological target: T1, mouse α3β1 integrin expressed on the plasma membrane of AT1 and AT2 alveolar epithelial cells and club cells (mouse) (UniProt Q62470+P09055); test: confocal immunofluorescence of mouse lung sections after aerosol administration
[2] = biological target: T1, mouse α3β1 integrin expressed on the plasma membrane of AT1 and AT2 alveolar epithelial cells and club cells (mouse); test: immunofluorescence co-localisation in mouse lung sections
[3] = biological target: T1, mouse α3β1 integrin expressed on the plasma membrane of AT1 and AT2 alveolar epithelial cells and club cells (mouse); test: immunofluorescence of mouse lung sections after aerosol administration of phage (FIGS. 4A-4F)
[4] = biological target: T2, human recombinant α3β1 integrin (human, UniProt P26006 33-991; P05556 21-728); test: phage binding to immobilised recombinant protein (FIG. 3A)
T2 construct: Bought protein, 100 ng immobilised in microtiter wells; also called α3β1 integrins

[5] = biological target: T2, human recombinant α3β1 integrin; test: cell-free phage binding to immobilised recombinant proteins, relative TU
[6] = biological target: T3, endogenous α3β1 integrins expressed on the surface of human alveolar epithelial adenocarcinoma cells (A549) (human) (UniProt P26006+P05556); test: BRASIL phage binding on A549 cells carrying endogenous α3β1
[7] = biological target: T3, endogenous α3β1 integrins expressed on the surface of human alveolar epithelial adenocarcinoma cells (A549) (human); test: summary of A549 binding and Transwell assays
[8] = biological target: T1, mouse α3β1 integrin expressed on the plasma membrane of AT1 and AT2 alveolar epithelial cells and club cells (mouse); test: TU count of phage recovered from flow-sorted mouse lung cells after aerosol administration
[9] = biological target: T1, mouse α3β1 integrin expressed on the plasma membrane of AT1 and AT2 alveolar epithelial cells and club cells (mouse); test: flow sorting of mouse lung cells after aerosol administration of phage, TU count (FIGS. 5A-5B)

Measured: binding

CAKSMGDIVC (peptide, not shown: large carriers, cyclic peptide (CX8C insert) (so in the source)) [targeted …-displaying phage particles]
binds: all assays above
